Experiment in all cases: co-rerouting to mitochondria
For experiment [1], the target named is mCherry-FKBP-TPD54 (human) (UniProt O43399).
For the next experiment, the target named is GFP-FKBP-Rab11a (UniProt P62491).
The target in the next experiment is GFP-FKBP-Rab7a (UniProt P51149).
In the next experiment the target is T1, GFP-FKBP-Rab25 (UniProt P57735).
T1 sequence: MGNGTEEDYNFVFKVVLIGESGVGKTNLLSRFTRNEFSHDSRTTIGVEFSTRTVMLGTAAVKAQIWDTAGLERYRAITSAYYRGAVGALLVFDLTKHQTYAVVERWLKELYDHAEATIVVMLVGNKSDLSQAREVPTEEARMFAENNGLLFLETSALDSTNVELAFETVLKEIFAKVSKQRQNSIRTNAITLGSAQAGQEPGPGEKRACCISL

Protein sequences, listed by entry. Tags and fused reporters are not part of them. Lines headed by an entry give the natural chain unless they say otherwise; changes in a name come on top.
UniProt O43399, whole entry: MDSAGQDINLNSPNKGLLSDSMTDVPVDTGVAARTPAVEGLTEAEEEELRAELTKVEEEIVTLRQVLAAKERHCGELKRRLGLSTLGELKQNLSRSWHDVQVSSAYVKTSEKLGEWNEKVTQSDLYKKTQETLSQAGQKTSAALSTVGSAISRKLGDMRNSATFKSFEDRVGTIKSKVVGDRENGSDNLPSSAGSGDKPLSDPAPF
UniProt P62491, whole entry: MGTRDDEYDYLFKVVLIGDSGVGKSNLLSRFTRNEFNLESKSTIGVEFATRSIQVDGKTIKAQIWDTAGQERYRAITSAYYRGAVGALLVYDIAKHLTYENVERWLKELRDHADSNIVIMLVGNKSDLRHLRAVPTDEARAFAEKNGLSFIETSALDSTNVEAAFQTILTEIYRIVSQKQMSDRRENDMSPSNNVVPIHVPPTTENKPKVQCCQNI
UniProt P51149, whole entry: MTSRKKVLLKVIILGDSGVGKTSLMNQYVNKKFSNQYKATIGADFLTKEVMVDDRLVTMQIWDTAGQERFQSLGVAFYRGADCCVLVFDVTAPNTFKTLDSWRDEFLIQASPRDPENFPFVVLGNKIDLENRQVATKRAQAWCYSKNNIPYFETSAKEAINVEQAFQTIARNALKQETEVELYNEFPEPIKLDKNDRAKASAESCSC
UniProt Q9H082, whole entry: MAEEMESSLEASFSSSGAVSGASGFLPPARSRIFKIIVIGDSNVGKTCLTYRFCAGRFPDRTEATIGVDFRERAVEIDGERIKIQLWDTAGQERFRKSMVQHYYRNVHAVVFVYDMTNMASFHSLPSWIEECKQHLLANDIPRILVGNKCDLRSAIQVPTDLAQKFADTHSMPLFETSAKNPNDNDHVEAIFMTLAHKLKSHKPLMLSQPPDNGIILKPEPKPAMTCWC
UniProt P61026, whole entry: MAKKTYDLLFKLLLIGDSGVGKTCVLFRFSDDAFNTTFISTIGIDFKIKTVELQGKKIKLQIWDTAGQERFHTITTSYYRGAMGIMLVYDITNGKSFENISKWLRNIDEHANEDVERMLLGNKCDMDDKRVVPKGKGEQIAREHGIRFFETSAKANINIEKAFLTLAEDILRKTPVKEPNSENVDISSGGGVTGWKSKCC
UniProt P61019, whole entry: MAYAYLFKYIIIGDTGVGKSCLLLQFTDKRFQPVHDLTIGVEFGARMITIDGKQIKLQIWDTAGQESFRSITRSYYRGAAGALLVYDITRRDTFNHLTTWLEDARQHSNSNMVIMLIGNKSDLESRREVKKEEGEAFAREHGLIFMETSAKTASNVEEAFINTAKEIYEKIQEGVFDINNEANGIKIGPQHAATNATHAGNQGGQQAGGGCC
UniProt Q9H0U4, whole entry: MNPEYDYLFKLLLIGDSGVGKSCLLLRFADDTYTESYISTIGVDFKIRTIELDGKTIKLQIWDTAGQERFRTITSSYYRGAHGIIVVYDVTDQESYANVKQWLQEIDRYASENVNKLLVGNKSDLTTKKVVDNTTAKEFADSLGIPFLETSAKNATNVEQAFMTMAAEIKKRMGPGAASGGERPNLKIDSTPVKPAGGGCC

Results are given in words; binding and its absence hold for the method and conditions named. Some entries that bind do so weakly or less than the wild type. For part of these data: Sequences can lack the tags named with a protein.

Turning to GFP-Rab33b (from UniProt Q9H082 1-229), the binding entry in experiment [1] was “binds”.

Take GFP-Rab11a (from UniProt P62491 1-216): the binding entry in experiment [1] was “binds”.

In the case of GFP-Rab10 (from UniProt P61026 1-200), the binding entry in experiment [1] is reported as “binds”.

As to “GFP-Rab1a Q70L (from UniProt P62820 1-205)”, the binding result in experiment [1] is recorded as “binds”.

Turning to GFP-Rab7a (from UniProt P51149 1-207), the binding entry in experiment [1] is “no binding”.

As for GFP-Rab1a (from UniProt P62820 1-205), the binding entry in experiment [1] was “binds”.

With “mCherry-TPD54 (from UniProt O43399 1-206)”, the binding entry is “binds” with GFP-FKBP-Rab11a, “no binding” with GFP-FKBP-Rab7a and “binds” with GFP-FKBP-Rab25.

For the molecule “GFP-Rab1a S25N (from UniProt P62820 1-205)”, the binding entry in experiment [1] is listed as “no binding”.

Regarding GFP-Rab2a (from UniProt P61019 1-212), the binding entry in experiment [1] was “binds”.

On to GFP-Rab1b (from UniProt Q9H0U4 1-201), for which the binding entry in experiment [1] was “binds”.

B1: GFP-TPD52 (protein, UniProt P55327 1-224)
chain: MDCREMDLYEDYQSPFDFDAGVNKSYLYLSPSGNSSPPGSPTLQKFGLLRTDPVPEEGEDVAATISATETLSEEEQEELRRELAKVEEEIQTLSQVLAAKEKHLAEIKRKLGINSLQELKQNIAKGWQDVTATSAYKKTSETLSQAGQKASAAFSSVGSVITKKLEDVKNSPTFKSFEEKVENLKSKVGGTKPAGGDFGEVLNSAANASATTTEPLPEKTQESL
Take B1: in experiment [1], the binding result is reported as “binds”.

B2: GFP-Rab19 (protein, UniProt A4D1S5 1-217)
chain: MHFSSSARAADENFDYLFKIILIGDSNVGKTCVVQHFKSGVYTETQQNTIGVDFTVRSLDIDGKKVKMQVWDTAGQERFRTITQSYYRSAHAAIIAYDLTRRSTFESIPHWIHEIEKYGAANVVIMLIGNKCDLWEKRHVLFEDACTLAEKYGLLAVLETSAKESKNIEEVFVLMAKELIARNSLHLYGESALNGLPLDSSPVLMAQGPSEKTHCTC
Turning to B2, in experiment [1], the binding result is “binds”.

B3: GFP-Rab43 (protein, UniProt Q86YS6 1-212)
chain: MAGPGPGPGDPDEQYDFLFKLVLVGDASVGKTCVVQRFKTGAFSERQGSTIGVDFTMKTLEIQGKRVKLQIWDTAGQERFRTITQSYYRSANGAILAYDITKRSSFLSVPHWIEDVRKYAGSNIVQLLIGNKSDLSELREVSLAEAQSLAEHYDILCAIETSAKDSSNVEEAFLRVATELIMRHGGPLFSEKSPDHIQLNSKDIGEGWGCGC
In the case of B3, in experiment [1], the binding entry was “binds”.

B4: GFP-Rab45 (protein, UniProt Q8IZ41 1-740)
chain: MEADGDGEELARLRSVFAACDANRSGRLEREEFRALCTELRVRPADAEAVFQRLDADRDGAITFQEFARGFLGSLRGGRRRDWGPLDPAPAVSEAGPETHDSEEDEGDEDAAAALATSCGPASPGRAWQDFQARLGDEAKFIPREEQVSTLYQNINLVEPRLIQPYEHVIKNFIREIRLQSTEMENLAIAVKRAQDKAAMQLSELEEEMDQRIQAAEHKTRKDEKRKAEEALSDLRRQYETEVGDLQVTIKKLRKLEEQSKRVSQKEDVAALKKQIYDLSMENQKVKKDLLEAQTNIAFLQSELDALKSDYADQSLNTERDLEIIRAYTEDRNSLERQIEILQTANRKLHDSNDGLRSALENSYSKFNRSLHINNISPGNTISRSSPKFIGHSPQPLGYDRSSRSSYVDEDCDSLALCDPLQRTNCEVDSLPESCFDSGLSTLRDPNEYDSEVEYKHQRGFQRSHGVQESFGGDASDTDVPDIRDEETFGLEDVASVLDWKPQGSVSEGSIVSSSRKPISALSPQTDLVDDNAKSFSSQKAYKIVLAGDAAVGKSSFLMRLCKNEFRENISATLGVDFQMKTLIVDGERTVLQLWDTAGQERFRSIAKSYFRKADGVLLLYDVTCEKSFLNIREWVDMIEDAAHETVPIMLVGNKADIRDTAATEGQKCVPGHFGEKLAMTYGALFCETSAKDGSNIVEAVLHLAREVKKRTDKDDSRSITNLTGTNSKKSPQMKNCCNG
With B4, the binding entry in experiment [1] was “binds”.

B5: GFP-Rab37 (protein, UniProt Q96AX2 1-223)
chain: MTGTPGAVATRDGEAPERSPPCSPSYDLTGKVMLLGDTGVGKTCFLIQFKDGAFLSGTFIATVGIDFRNKVVTVDGVRVKLQIWDTAGQERFRSVTHAYYRDAQALLLLYDITNKSSFDNIRAWLTEIHEYAQRDVVIMLLGNKADMSSERVIRSEDGETLAREYGVPFLETSAKTGMNVELAFLAIAKELKYRAGHQADEPSFQIRDYVESQKKRSSCCSFM
Consider B5, for which, in experiment [1], the binding result is on record as “binds”.

B6: GFP-Rab30 Q68L (protein, UniProt Q15771 1-203)
chain: MSMEDYDFLFKIVLIGNAGVGKTCLVRRFTQGLFPPGQGATIGVDFMIKTVEINGEKVKLQIWDTAGLERFRSITQSYYRSANALILTYDITCEESFRCLPEWLREIEQYASNKVITVLVGNKIDLAERREVSQQRAEEFSEAQDMYYLETSAKESDNVEKLFLDLACRLISEARQNTLVNNVSSPLPGEGKSISYLTCCNFN
For B6, the binding result in experiment [1] is listed as “binds”.

B7: GFP-Rab30 T23N (protein, UniProt Q15771 1-203)
chain: MSMEDYDFLFKIVLIGNAGVGKNCLVRRFTQGLFPPGQGATIGVDFMIKTVEINGEKVKLQIWDTAGQERFRSITQSYYRSANALILTYDITCEESFRCLPEWLREIEQYASNKVITVLVGNKIDLAERREVSQQRAEEFSEAQDMYYLETSAKESDNVEKLFLDLACRLISEARQNTLVNNVSSPLPGEGKSISYLTCCNFN
Regarding B7, the binding entry in experiment [1] is “no binding”.

B8: GFP-Rab30 (protein, UniProt Q15771 1-203)
chain: MSMEDYDFLFKIVLIGNAGVGKTCLVRRFTQGLFPPGQGATIGVDFMIKTVEINGEKVKLQIWDTAGQERFRSITQSYYRSANALILTYDITCEESFRCLPEWLREIEQYASNKVITVLVGNKIDLAERREVSQQRAEEFSEAQDMYYLETSAKESDNVEKLFLDLACRLISEARQNTLVNNVSSPLPGEGKSISYLTCCNFN
As to B8, the binding entry in experiment [1] is “binds”.

B9: GFP-Rab26 (protein, UniProt Q9ULW5 1-256)
chain: MSRKKTPKSKGASTPAASTLPTANGARPARSGTALSGPDAPPNGPLQPGRPSLGGGVDFYDVAFKVMLVGDSGVGKTCLLVRFKDGAFLAGTFISTVGIDFRNKVLDVDGVKVKLQMWDTAGQERFRSVTHAYYRDAHALLLLYDVTNKASFDNIQAWLTEIHEYAQHDVALMLLGNKVDSAHERVVKREDGEKLAKEYGLPFMETSAKTGLNVDLAFTAIAKELKQRSMKAPSEPRFRLHDYVKREGRGASCCRP
As to B9, the binding result in experiment [1] is “binds”.

B10: GFP-Rab12 (protein, UniProt Q6IQ22 1-340)
chain: MLLPLLRSSCFPSSSPGGGGGSGGGGGGGDPGAESRPAAQLQRGAHGPPGPLQRAEAEPGADPPRAAEAEGAPGPGARSRGAGGGGRRAEREPHACMDPGAALQRRAGGGGGLGAGSPALSGGQGRRRKQPPRPADFKLQVIIIGSRGVGKTSLMERFTDDTFCEACKSTVGVDFKIKTVELRGKKIRLQIWDTAGQERFNSITSAYYRSAKGIILVYDITKKETFDDLPKWMKMIDKYASEDAELLLVGNKLDCETDREITRQQGEKFAQQITGMRFCEASAKDNFNVDEIFLKLVDDILKKMPLDILRNELSNSILSLQPEPEIPPELPPPRPHVRCC
As for B10, the binding entry in experiment [1] is “binds”.

B11: GFP-Rab25 (protein, UniProt P57735 1-213)
chain: MGNGTEEDYNFVFKVVLIGESGVGKTNLLSRFTRNEFSHDSRTTIGVEFSTRTVMLGTAAVKAQIWDTAGLERYRAITSAYYRGAVGALLVFDLTKHQTYAVVERWLKELYDHAEATIVVMLVGNKSDLSQAREVPTEEARMFAENNGLLFLETSALDSTNVELAFETVLKEIFAKVSKQRQNSIRTNAITLGSAQAGQEPGPGEKRACCISL
Consider B11, for which the binding entry in experiment [1] is reported as “binds”.

B12: GFP-Rab33a (protein, UniProt Q14088 1-237)
chain: MAQPILGHGSLQPASAAGLASLELDSSLDQYVQIRIFKIIVIGDSNVGKTCLTFRFCGGTFPDKTEATIGVDFREKTVEIEGEKIKVQVWDTAGQERFRKSMVEHYYRNVHAVVFVYDVTKMTSFTNLKMWIQECNGHAVPPLVPKVLVGNKCDLREQIQVPSNLALKFADAHNMLLFETSAKDPKESQNVESIFMCLACRLKAQKSLLYRDAERQQGKVQKLEFPQEANSKTSCPC
Take B12: the binding result in experiment [1] is reported as “binds”.

The record behind these values is paper doi:10.1101/481754.
